Data as given in PubChem BioAssay AID493014 (National Center for Advancing Translational Sciences (NCATS), 2011).
This is one part of the list. The main result of the screen is listed elsewhere. These columns were measured beside it and carry no call. The list favours compounds with an active or inconclusive main result. Potencies come from curve fits of mixed quality, noted in brackets.

Assay: qHTS Assay to Find Inhibitors of Chronic Active B-Cell Receptor Signaling
Details: ABC-DLBCL IkBa-CBG/CBR reporter, luminescence ratio (green luciferase fused to IkBa over red control in TMD8 lymphoma cells), 4 h; measured here: CBR red luminescence, cell number
How it was run: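 TMD8 human ABC-DLBCL cells with doxycycline-inducible IκBα–green luciferase fusion and unfused red luciferase, in 0.5% FBS medium; compounds up to 46 uM, 4 h at 37C. Green/red luminescence ratio, filter-overlap corrected, fitted to concentration-response curves.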

Compound | AC50
O=C(Nc1nc(-c2cccs2)c(-c2cccs2)s1)C1CCCC1 | 2.31 µM [falling, partial curve, poor fit]
CC(C(=O)Nc1cccc([N+](=O)[O-])c1)N1CCN(C/C=C/c2ccccc2)CC1 (stereo not drawn) | 29.1 µM [falling, single point]
Cc1ccc(Cl)cc1N1CCN(Cc2nc3c(c(=O)[nH]c(=O)n3C)n2CCc2ccccc2)CC1 | 29.1 µM [rising, partial curve, poor fit]
COc1ccc(-c2noc(CN(C)Cc3ccccc3)n2)cc1 | 35.5 µM [rising, single point]
Cc1cc(C)c2c(NC(=O)CCl)nn(C)c2n1 | 12.6 µM [falling, single point]
CN(C)C1(CNC(=O)Nc2ccccc2)CCCCC1 | 12.6 µM [rising, partial curve, poor fit]
OC(CNC1CCCCC1)CNC1CCCCC1 | 35.5 µM [falling, single point]
N#Cc1nc(-c2ccccc2)oc1NCC1CCCO1 (stereo not drawn) | 7.31 µM [rising, partial curve, poor fit]
Cn1c(=O)cc(SCC(=O)NCC2CCCO2)c2ccccc21 (stereo not drawn) | 11.2 µM [rising, partial curve, poor fit]
CCN(CC)S(=O)(=O)c1ccc(C)c(NC(=S)N2CCN(Cc3ccc4c(c3)OCO4)CC2)c1 | 17.8 µM [falling, single point]
O=C(CSc1nnc(COc2ccccc2)o1)NC1CC2CCC1C2 (stereo not drawn) | 35.5 µM [rising, partial curve, poor fit]
CC1(C)Cc2c(c(N3CCCC3)nc3sc4c(N5CCNCC5)ncnc4c23)CO1 | 6.31 µM [rising, partial curve, poor fit]
CCNc1nc(NCC)nc(N/N=C/c2ccc([N+](=O)[O-])o2)n1 | 18.4 µM [rising, partial curve, poor fit]
COc1cccc(C2/C(=C(/O)c3cnn(-c4ccccc4)c3C)C(=O)C(=O)N2CCN(C)C)c1 (stereo not drawn) | 4.61 µM [rising, full curve, poor fit]
CN(CCC#N)C(=O)COC(=O)c1cccnc1Nc1ccccc1F | 11.2 µM [falling, partial curve]
COc1ccc(C2=CC(=O)OC3(CCCCC3)O2)cc1 | 20 µM [rising, partial curve, poor fit]
O=C(COc1ccc(Br)cc1Br)NC(=S)Nc1cccc(CO)c1 | 14.6 µM [rising, partial curve]

Pulled by compound from the list above (2):
Compound | AC50
O=C(Nc1nc(-c2cccs2)c(-c2cccs2)s1)C1CCCC1 | 2.31 µM [falling, partial curve, poor fit]
CN(C)C1(CNC(=O)Nc2ccccc2)CCCCC1 | 12.6 µM [rising, partial curve, poor fit]

More compounds:

Compound | AC50
CCN(C(=O)COC(=O)c1nc(Cl)ccc1Cl)C1CCS(=O)(=O)C1 (stereo not drawn) | 20.6 µM [falling, partial curve, poor fit]
Cc1cc(C(=O)N/N=C/c2c(C)nn(-c3ccccc3)c2C)c(C)o1 | 3.55 µM [falling, partial curve, poor fit]
CCCn1c(SCC(=O)Nc2nc(C)c(C(=O)OC)s2)nnc1C(C)C | 1.78 µM [falling, partial curve]
C#Cc1ccc(CN2CCCC(C(=O)Nc3ccccc3Oc3cccnc3)C2)cc1 (stereo not drawn) | 17.8 µM [falling, single point]
Cc1nnc(N/N=C/c2cccs2)[nH]c1=O | 7.08 µM [falling, partial curve, poor fit]
O=C1CC2(CCN(C(=O)c3ccccc3Cl)CC2)Oc2ccccc21 | 5.8 µM [falling, partial curve, poor fit]
CCO[C@H]1OC(C(=O)NCc2ccccc2)=C[C@@H](c2coc3ccccc3c2=O)[C@@H]1CCCO | 0.1 µM [falling, full curve, poor fit]
N#Cc1cccc(Cn2nnc(-c3ccccc3)n2)c1 | 13 µM [rising, partial curve]
Cc1[nH][nH]c(=O)c1C | 2.59 µM [rising, full curve, poor fit]
CC(C)Cc1cc(-c2ccco2)c(C#N)c(N)n1 | 12.6 µM [rising, partial curve, poor fit]
CC(C)Cc1nnc(NC(=O)CSc2ncn[nH]2)s1 | 14.6 µM [falling, single point]
Cc1ccc(NC(=O)C2CCN(S(=O)(=O)c3ccc4c(c3)CC(C)N4C(=O)C3CCC3)CC2)nc1 (stereo not drawn) | 14.1 µM [falling, partial curve, poor fit]
COc1ccc(OC)c(NC(=O)N2CCCc3ccccc32)c1 | 0.562 µM [falling, full curve, poor fit]
CCOC(=O)N1CCN(C(=O)COC(=O)CNC(=O)c2ccc(C)cc2)CC1 | 7.31 µM [rising, partial curve]
O=C1OCCC1Sc1nc(-c2ccccc2)cs1 (stereo not drawn) | 29.1 µM [rising, single point]
O=C(NNC(=O)C1CC1c1ccccc1)Nc1ccccc1 (stereo not drawn) | 29.1 µM [rising, single point]
